According to article PMC9649962, “Early diagnosis of bladder cancer by photoacoustic imaging of tumor-targeted gold nanorods” (Photoacoustics, 2022):
These are yes or no findings as the source states them, for the method shown.

Protein sequences, listed by entry. Tags and fused reporters are not part of them. Lines headed by an entry give the natural chain unless they say otherwise; changes in a name come on top.
UniProt P08648: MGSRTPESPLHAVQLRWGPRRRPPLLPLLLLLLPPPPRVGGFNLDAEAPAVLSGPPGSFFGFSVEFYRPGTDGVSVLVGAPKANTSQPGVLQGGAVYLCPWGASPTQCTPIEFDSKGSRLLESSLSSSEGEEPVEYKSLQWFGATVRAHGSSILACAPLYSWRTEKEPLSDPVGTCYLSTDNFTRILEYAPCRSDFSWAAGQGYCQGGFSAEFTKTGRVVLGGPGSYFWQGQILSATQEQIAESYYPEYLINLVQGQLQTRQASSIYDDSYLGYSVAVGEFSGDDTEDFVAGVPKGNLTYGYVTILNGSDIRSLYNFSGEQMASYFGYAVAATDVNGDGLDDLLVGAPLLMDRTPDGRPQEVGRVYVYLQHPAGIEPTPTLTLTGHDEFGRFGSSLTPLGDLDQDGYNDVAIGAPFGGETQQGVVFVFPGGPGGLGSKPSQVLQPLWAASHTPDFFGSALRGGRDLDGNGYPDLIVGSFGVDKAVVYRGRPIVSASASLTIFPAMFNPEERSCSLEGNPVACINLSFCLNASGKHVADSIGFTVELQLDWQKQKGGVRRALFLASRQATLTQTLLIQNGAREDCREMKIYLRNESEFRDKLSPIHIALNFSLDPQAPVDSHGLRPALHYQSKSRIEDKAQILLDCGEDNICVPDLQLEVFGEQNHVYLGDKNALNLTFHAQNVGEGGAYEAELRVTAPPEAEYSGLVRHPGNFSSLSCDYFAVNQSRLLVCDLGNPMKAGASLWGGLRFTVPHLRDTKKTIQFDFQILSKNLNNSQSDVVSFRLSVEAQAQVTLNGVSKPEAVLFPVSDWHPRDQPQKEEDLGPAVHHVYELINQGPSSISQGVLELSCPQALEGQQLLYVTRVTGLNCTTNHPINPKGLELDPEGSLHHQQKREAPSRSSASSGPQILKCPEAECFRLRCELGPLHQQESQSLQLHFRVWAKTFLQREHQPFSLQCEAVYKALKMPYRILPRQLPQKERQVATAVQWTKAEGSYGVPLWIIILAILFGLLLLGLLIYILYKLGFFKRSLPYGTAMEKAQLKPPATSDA
UniProt P05556: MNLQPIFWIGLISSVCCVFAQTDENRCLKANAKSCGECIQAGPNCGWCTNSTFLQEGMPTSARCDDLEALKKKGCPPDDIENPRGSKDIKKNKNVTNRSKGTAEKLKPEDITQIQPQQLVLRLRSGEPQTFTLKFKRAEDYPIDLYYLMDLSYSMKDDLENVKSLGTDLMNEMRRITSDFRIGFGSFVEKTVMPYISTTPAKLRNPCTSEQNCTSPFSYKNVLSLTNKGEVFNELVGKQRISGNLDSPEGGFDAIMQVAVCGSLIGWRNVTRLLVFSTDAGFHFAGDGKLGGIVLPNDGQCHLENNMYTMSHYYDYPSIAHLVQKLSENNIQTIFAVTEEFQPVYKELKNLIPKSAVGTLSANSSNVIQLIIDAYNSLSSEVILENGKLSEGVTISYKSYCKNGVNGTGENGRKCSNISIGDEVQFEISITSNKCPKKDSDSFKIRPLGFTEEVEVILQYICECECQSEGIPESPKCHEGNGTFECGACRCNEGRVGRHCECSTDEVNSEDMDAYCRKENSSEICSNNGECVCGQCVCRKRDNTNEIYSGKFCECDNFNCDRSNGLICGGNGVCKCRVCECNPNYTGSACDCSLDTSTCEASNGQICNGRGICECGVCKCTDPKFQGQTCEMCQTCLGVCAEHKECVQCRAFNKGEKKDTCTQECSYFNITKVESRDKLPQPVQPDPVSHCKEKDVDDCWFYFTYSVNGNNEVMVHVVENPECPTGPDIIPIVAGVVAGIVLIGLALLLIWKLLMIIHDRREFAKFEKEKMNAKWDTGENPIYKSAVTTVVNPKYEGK
UniProt P11688: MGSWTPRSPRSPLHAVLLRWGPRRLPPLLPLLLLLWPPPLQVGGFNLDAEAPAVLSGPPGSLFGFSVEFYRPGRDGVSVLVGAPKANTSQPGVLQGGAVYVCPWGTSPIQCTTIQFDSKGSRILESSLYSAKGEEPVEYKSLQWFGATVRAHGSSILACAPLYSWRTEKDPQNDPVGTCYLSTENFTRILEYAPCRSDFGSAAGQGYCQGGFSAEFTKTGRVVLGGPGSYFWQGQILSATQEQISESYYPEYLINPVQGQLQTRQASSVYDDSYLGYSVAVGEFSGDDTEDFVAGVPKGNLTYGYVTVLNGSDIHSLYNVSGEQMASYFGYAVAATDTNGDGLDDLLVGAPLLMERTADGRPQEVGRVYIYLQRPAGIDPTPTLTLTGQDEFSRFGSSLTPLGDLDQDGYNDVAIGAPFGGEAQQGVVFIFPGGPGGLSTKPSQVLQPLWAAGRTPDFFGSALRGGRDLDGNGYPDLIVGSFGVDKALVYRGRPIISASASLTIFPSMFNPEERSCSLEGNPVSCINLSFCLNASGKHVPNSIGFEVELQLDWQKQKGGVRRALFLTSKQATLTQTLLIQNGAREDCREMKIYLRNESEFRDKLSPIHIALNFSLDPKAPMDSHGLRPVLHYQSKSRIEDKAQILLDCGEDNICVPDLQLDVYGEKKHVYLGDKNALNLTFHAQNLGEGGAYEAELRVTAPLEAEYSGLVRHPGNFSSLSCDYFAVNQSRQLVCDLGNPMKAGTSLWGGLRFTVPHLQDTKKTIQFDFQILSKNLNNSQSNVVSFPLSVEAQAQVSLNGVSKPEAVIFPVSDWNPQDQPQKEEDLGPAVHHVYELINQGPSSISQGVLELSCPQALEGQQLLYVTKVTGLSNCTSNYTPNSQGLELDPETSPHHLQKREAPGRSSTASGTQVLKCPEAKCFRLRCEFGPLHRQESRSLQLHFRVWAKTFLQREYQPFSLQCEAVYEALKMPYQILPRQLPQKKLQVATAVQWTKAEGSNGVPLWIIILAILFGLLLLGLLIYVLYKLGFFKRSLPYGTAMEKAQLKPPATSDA
UniProt P09055: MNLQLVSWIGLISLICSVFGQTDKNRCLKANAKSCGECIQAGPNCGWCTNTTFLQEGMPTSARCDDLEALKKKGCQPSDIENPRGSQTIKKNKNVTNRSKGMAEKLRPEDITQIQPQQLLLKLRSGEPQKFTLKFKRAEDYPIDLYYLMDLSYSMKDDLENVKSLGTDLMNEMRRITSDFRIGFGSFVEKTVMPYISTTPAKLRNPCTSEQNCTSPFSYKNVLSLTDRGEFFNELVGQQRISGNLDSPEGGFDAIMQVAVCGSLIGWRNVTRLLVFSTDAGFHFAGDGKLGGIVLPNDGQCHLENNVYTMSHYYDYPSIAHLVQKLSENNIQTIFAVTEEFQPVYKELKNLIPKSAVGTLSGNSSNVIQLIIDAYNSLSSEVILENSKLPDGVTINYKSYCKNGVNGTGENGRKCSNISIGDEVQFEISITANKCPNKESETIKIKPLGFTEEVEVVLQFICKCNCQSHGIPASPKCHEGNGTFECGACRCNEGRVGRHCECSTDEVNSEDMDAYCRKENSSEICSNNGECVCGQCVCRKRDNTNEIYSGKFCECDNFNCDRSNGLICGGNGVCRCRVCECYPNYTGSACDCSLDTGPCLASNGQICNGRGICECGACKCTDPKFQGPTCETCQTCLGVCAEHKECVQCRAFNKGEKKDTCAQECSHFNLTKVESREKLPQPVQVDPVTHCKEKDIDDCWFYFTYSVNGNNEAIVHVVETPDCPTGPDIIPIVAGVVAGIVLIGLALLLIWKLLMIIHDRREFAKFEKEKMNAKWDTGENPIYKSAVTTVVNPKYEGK

How the values were obtained:
[1] = biological target: T1, α5β1 integrin on human bladder cancer 5637 cells (human (endogenous in 5637)) (UniProt P08648+P05556); assay: fluorescence microscopy of Qdot bound to living cells (Cellomics ArrayScan); living 5637 cells grown in 96-well plates, Iso4-Qdot or ARA-Qdot 30 nM in binding buffer-1, 2 h at 37 °C, 5% CO2; washed, fixed; only the binder purified
[2] = biological target: T1, α5β1 integrin on human bladder cancer 5637 cells (human (endogenous in 5637)); assay: flow cytometry on cells; detached MB49-Luc or 5637 cells with Iso4- or ARA-Qdot (30–0 nM) in 25 mM Hepes pH 7.4, 150 mM sodium chloride, 1 mM magnesium chloride, 1 mM manganese chloride, 1% BSA, 2 h at 37 °C; washed, fixed; only the binder purified
[3] = biological target: α5β1 integrin on murine bladder cancer MB49-Luc cells (mouse (endogenous in MB49-Luc)) (UniProt P11688+P09055); assay: as above

binding [1]: no binding (tested: 30 nM)
binding [2]: no binding (tested: 30 nM)
binding [3]: no binding (tested: 30 nM)
Binder: CGARAG (head-to-tail cyclized; coupled to Qdot605 ITK Amino PEG nanoparticles) [ARA-Qdot (ARA, c(CGARAG), coupled to Qdot605 ITK Amino PEG quantum dots)]
